Assay results published in article PMC7909837, “Function and Regulation of Chloroplast Peroxiredoxin IIE” (Antioxidants, 2021).
Where a chain is given by its changes, count along the chain named. Names may count otherwise. No constants are given. Whether binding was seen depends on the method and setting. Some binding calls cover weakened binding; strength is not graded here. Where a sequence is shown, tags or fusion partners need not be part of it.

Target: T1, 14-3-3 υ protein, recombinant (A. thaliana, UniProt P42645 1-268)
T1 construct: 14-3-3 υ, A. thaliana, AT5G16050; construct and tags not described
T1 sequence (looked up): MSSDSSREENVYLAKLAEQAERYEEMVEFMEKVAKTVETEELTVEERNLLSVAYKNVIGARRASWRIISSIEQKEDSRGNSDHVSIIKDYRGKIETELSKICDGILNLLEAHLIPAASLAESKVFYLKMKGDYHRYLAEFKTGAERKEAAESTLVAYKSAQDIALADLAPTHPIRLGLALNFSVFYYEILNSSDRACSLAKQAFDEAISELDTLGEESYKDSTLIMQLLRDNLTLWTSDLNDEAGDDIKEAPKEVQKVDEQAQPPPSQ
Assay: far-Western, overlay or dot blot; dilution series of recombinant 14-3-3 υ spotted on nitrocellulose; incubated with PRX-IIE or its phospho-mimicry variants in TBS with either 1 mM DTT or 100 µM H2O2 overnight at 4 °C; detected with anti-PRX-IIE antibody; spots quantified with ImageJ; both purified

B1: Peroxiredoxin IIE (PRX-IIE), wild type, His6-tagged recombinant (enzyme, A. thaliana, UniProt Q949U7 71-234, looked up)
chain: ASISVGDKLPDSTLSYLDPSTGDVKTVTVSSLTAGKKTILFAVPGAFTPTCSQKHVPGFVSKAGELRSKGIDVIACISVNDAFVMEAWRKDLGINDEVMLLSDGNGEFTGKLGVELDLRDKPVGLGVRSRRYAILADDGVVKVLNLEEGGAFTNSSAEDMLKAL
notes: Peroxiredoxin IIE, A. thaliana, AT3G52960, cloned into pET28a (NdeI/BamHI); also called PRX-IIE WT; WT PRX-IIE; source: E. coli BL21 (DE3)pLysS, purified (Ni-NTA, dialysis)
  binding: binds

B2: PRX-IIE S82D phospho-mimicry variant (enzyme, UniProt Q949U7 71-234)
chain: B1 chain with S12D
  binding: binds

B3: PRX-IIE T108E phospho-mimicry variant (enzyme, UniProt Q949U7 71-234)
chain: B1 chain with T38E
  binding: binds

B4: PRX-IIE T223E phospho-mimicry variant (enzyme, UniProt Q949U7 71-234)
chain: B1 chain with T153E
  binding: binds
